From publication PMC12390935

Chains of the proteins cited; added tags and fusions are not shown. Lines headed by an entry give the natural chain unless they say otherwise; changes in a name come on top. A line that says so, or that is headed by a name, gives the form on record, which may keep a tag or linker. Residues count along the entry.
UniProt Q9UM07: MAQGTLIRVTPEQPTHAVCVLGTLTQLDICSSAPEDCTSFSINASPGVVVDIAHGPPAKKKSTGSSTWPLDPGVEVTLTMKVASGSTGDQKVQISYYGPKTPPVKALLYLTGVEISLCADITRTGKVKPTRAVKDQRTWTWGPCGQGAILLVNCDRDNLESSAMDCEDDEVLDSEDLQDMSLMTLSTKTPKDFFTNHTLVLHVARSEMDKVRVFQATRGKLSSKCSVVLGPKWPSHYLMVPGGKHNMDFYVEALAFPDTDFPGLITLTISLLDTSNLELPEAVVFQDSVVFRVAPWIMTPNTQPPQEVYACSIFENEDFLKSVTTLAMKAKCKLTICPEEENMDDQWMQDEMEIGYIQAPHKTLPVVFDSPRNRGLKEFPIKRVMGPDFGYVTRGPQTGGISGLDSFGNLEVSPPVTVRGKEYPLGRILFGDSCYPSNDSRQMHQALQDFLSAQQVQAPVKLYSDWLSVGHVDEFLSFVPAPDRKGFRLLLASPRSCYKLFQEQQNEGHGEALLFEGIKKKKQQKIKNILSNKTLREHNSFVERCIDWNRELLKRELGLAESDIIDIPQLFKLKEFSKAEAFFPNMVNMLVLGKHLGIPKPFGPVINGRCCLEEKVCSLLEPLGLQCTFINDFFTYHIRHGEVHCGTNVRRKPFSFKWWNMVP
GST-PAD4-N (N-terminal half of PAD4, aa 1-293, fused to glutathione S-transferase): residues 1-293 of Q9UM07
GST-PAD4-C (C-terminal half of PAD4, aa 294-600, fused to glutathione S-transferase): residues 294-600 of Q9UM07
UniProt P47756: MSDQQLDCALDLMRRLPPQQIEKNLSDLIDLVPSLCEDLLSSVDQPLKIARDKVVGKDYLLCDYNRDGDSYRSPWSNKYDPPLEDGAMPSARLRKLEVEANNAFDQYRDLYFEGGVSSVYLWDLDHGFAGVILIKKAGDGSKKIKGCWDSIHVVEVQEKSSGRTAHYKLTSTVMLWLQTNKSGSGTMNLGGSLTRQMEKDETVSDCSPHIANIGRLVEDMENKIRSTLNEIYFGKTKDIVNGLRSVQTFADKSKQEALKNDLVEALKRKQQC
UniProt P12814: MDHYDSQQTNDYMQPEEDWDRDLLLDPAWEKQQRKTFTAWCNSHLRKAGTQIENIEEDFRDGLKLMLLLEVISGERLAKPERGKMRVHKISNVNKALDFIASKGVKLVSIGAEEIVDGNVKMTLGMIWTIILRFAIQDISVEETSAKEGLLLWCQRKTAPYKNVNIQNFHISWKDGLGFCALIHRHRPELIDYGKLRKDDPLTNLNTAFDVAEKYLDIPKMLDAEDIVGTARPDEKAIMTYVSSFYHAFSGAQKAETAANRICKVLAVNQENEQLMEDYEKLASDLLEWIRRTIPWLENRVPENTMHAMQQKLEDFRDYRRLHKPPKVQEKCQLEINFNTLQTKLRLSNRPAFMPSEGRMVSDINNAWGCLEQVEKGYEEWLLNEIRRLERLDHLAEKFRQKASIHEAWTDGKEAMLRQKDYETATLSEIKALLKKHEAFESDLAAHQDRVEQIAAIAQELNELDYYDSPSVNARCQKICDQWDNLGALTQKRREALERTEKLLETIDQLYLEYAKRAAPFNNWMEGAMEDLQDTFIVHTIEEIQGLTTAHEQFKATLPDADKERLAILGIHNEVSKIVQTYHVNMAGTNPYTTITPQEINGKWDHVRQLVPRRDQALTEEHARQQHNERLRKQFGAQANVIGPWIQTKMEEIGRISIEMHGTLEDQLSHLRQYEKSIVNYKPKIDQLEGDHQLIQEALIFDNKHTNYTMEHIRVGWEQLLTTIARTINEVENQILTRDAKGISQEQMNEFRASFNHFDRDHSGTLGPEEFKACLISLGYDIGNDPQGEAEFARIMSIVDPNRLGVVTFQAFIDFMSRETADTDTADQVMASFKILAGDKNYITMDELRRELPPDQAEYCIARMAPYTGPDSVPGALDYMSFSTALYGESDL
UniProt O75923: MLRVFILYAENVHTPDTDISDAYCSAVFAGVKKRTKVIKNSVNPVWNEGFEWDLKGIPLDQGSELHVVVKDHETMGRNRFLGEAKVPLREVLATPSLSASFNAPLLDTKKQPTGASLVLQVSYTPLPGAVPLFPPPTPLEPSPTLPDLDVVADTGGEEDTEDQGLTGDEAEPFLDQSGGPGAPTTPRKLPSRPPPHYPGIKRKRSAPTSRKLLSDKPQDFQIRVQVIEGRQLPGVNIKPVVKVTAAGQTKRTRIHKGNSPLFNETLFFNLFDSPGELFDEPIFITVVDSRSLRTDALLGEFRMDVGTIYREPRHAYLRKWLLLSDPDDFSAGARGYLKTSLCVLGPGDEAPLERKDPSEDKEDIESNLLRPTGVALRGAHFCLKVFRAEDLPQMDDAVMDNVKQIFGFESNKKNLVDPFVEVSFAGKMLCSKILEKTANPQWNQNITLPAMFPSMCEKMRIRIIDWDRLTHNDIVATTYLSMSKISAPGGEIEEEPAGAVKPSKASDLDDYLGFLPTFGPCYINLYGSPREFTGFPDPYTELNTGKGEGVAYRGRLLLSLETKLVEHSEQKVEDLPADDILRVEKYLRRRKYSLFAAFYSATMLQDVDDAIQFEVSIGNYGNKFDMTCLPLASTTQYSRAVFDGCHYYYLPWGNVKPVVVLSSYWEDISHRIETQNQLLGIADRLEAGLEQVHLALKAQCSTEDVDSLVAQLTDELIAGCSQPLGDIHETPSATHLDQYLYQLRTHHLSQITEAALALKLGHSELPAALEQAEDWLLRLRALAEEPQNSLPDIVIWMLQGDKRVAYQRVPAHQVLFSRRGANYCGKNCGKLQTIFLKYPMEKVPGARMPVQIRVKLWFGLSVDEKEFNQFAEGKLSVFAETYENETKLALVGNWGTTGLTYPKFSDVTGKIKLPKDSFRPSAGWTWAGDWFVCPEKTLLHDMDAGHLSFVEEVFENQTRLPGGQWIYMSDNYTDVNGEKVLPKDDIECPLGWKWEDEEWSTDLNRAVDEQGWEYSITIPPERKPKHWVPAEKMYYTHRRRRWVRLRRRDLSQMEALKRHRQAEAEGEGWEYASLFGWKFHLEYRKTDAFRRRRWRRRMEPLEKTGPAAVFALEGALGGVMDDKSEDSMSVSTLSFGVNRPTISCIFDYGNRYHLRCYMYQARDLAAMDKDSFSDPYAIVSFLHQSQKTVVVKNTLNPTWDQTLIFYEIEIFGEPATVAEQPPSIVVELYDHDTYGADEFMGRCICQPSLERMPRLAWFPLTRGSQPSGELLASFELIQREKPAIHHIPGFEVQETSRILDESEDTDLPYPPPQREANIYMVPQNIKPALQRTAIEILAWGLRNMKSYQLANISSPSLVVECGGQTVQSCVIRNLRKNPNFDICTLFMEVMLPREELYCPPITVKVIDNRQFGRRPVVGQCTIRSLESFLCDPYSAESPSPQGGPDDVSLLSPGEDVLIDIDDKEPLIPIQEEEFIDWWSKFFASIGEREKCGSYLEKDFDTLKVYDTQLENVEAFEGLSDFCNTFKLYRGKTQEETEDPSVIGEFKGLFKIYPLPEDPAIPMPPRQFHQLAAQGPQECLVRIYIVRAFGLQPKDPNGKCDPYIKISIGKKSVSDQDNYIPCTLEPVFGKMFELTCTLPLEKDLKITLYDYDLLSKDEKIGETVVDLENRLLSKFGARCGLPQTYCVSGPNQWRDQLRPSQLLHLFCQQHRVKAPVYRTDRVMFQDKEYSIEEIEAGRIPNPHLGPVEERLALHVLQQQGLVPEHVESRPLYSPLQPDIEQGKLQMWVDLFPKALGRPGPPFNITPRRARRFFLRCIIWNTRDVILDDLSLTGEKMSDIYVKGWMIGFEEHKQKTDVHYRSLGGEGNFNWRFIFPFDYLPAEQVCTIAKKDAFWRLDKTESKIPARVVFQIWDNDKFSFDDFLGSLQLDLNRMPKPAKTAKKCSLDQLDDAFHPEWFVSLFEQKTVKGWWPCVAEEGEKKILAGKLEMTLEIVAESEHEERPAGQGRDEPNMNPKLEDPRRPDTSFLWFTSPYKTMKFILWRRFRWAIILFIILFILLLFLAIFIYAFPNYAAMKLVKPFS
UniProt P06733: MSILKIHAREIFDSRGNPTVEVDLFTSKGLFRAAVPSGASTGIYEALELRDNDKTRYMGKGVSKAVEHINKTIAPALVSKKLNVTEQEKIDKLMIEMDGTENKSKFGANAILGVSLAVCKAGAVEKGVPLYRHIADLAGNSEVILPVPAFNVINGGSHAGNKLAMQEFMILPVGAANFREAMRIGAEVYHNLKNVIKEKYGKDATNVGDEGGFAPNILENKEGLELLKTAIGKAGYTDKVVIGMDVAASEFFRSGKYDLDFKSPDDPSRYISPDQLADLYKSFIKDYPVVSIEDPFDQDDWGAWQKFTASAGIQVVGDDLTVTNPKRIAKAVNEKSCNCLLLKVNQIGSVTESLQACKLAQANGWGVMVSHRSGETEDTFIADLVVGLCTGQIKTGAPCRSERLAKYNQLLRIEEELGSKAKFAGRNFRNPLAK
UniProt P60660: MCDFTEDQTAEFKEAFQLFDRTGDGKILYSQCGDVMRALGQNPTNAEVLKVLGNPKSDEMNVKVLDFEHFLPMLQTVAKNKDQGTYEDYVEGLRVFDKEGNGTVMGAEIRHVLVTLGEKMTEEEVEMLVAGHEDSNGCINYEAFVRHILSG
UniProt P14598: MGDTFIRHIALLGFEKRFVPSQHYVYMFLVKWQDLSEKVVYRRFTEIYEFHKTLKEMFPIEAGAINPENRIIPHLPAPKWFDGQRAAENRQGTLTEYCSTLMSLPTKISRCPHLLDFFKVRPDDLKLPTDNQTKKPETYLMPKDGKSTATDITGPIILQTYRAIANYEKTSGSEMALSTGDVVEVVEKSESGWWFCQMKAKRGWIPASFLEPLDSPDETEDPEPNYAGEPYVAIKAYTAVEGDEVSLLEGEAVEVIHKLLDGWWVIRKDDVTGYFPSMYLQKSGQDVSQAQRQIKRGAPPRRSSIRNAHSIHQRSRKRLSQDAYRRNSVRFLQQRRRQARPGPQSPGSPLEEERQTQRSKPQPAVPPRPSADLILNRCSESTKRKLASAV
UniProt P68363: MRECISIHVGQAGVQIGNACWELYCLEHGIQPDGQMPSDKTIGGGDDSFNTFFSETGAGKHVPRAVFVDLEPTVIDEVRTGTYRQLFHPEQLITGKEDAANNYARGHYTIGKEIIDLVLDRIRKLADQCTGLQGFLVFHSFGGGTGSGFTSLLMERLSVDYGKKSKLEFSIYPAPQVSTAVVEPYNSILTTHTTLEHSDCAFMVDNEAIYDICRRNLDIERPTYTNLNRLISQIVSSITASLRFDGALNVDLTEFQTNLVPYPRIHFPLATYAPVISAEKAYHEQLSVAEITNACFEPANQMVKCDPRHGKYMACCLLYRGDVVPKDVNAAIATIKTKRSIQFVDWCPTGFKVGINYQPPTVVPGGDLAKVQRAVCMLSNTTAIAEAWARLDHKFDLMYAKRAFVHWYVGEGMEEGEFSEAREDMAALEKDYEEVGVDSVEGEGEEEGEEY

B1: stomatin (STOM), endogenous in neutrophils (protein, UniProt P27105 1-288)
chain: MAEKRHTRDSEAQRLPDSFKDSPSKGLGPCGWILVAFSFLFTVITFPISIWMCIKIIKEYERAIIFRLGRILQGGAKGPGLFFILPCTDSFIKVDMRTISFDIPPQEILTKDSVTISVDGVVYYRVQNATLAVANITNADSATRLLAQTTLRNVLGTKNLSQILSDREEIAHNMQSTLDDATDAWGIKVERVEIKDVKLPVQLQRAMAAEAEASREARAKVIAAEGEMNASRALKEASMVITESPAALQLRYLQTLTTIAAEKNSTIVFPLPIDMLQGIIGAKHSHLG
B2: grancalcin (GCA), endogenous in neutrophils (protein, UniProt P28676 1-217)
chain: MAYPGYGGGFGNFSIQVPGMQMGQPVPETGPAILLDGYSGPAYSDTYSSAGDSVYTYFSAVAGQDGEVDAEELQRCLTQSGINGTYSPFSLETCRIMIAMLDRDHTGKMGFNAFKELWAALNAWKENFMTVDQDGSGTVEHHELRQAIGLMGYRLSPQTLTTIVKRYSKNGRIFFDDYVACCVKLRALTDFFRKRDHLQQGSANFIYDDFLQGTMAI
B3: plastin-2 (LCP1), endogenous in neutrophils (protein, UniProt P13796 1-627)
chain: MARGSVSDEEMMELREAFAKVDTDGNGYISFNELNDLFKAACLPLPGYRVREITENLMATGDLDQDGRISFDEFIKIFHGLKSTDVAKTFRKAINKKEGICAIGGTSEQSSVGTQHSYSEEEKYAFVNWINKALENDPDCRHVIPMNPNTNDLFNAVGDGIVLCKMINLSVPDTIDERTINKKKLTPFTIQENLNLALNSASAIGCHVVNIGAEDLKEGKPYLVLGLLWQVIKIGLFADIELSRNEALIALLREGESLEDLMKLSPEELLLRWANYHLENAGCNKIGNFSTDIKDSKAYYHLLEQVAPKGDEEGVPAVVIDMSGLREKDDIQRAECMLQQAERLGCRQFVTATDVVRGNPKLNLAFIANLFNRYPALHKPENQDIDWGALEGETREERTFRNWMNSLGVNPRVNHLYSDLSDALVIFQLYEKIKVPVDWNRVNKPPYPKLGGNMKKLENCNYAVELGKNQAKFSLVGIGGQDLNEGNRTLTLALIWQLMRRYTLNILEEIGGGQKVNDDIIVNWVNETLREAKKSSSISSFKDPKISTSLPVLDLIDAIQPGSINYDLLKTENLNDDEKLNNAKYAISMARKIGARVYALPEDLVEVNPKMVMTVFACLMGKGMKRV
B4: myosin light chain 12A (MYL12A), endogenous in neutrophils (protein, UniProt P19105 1-171)
chain: MSSKRTKTKTKKRPQRATSNVFAMFDQSQIQEFKEAFNMIDQNRDGFIDKEDLHDMLASLGKNPTDEYLDAMMNEAPGPINFTMFLTMFGEKLNGTDPEDVIRNAFACFDEEATGTIQEDYLRELLTTMGDRFTDEEVDELYREAPIDKKGNFNYIEFTRILKHGAKDKDD

Experiments:
[1] = target: protein arginine deiminase 4 (PAD4), endogenous in neutrophils (human (endogenous in neutrophils)) (UniProt Q9UM07); test: affinity purification with mass spectrometry; anti-PAD4 immunoprecipitates (mAb OTI4H5; also a polyclonal and a human IgG4 anti-PAD4) from neutrophil lysates of patients with RA and healthy donors; 25 mM Tris/HCl pH 7.4, 150 mM NaCl, 1% Triton X-100; washes incl. 500 mM NaCl; on-bead trypsin digestion, LC-MS/MS; proteins of a control precipitate without antibody subtracted
[2] = target: GST-PAD4-C (C-terminal half of PAD4, aa 294-600, fused to glutathione S-transferase) (human) (UniProt Q9UM07); test: affinity purification with mass spectrometry; GST pull-down: GST-PAD4-N, GST-PAD4-C or GST alone on glutathione agarose beads, incubated with RA neutrophil lysates at 4 °C overnight; on-bead trypsin digestion, LC-MS/MS; only the target purified
[3] = target: HA-tagged PAD4 (full length), expressed in 293T cells (human) (UniProt Q9UM07); test: affinity purification with mass spectrometry; anti-PAD4 or anti-HA (12CA5) immunoprecipitates from lysates of 293T cells transfected with or without HA-tagged PAD4; LC-MS/MS
[4] = target: GST-PAD4-N (N-terminal half of PAD4, aa 1-293, fused to glutathione S-transferase) (human) (UniProt Q9UM07); test: affinity purification with mass spectrometry; GST pull-down: GST-PAD4-N, GST-PAD4-C or GST alone on glutathione agarose beads, incubated with RA neutrophil lysates at 4 °C overnight; on-bead trypsin digestion, LC-MS/MS; only the target purified
[5] = target: protein arginine deiminase 4 (PAD4), endogenous in neutrophils (human (endogenous in neutrophils)) (UniProt Q9UM07); test: affinity purification with mass spectrometry; anti-PAD4 immunoprecipitates (mAb OTI4H5; also a polyclonal and a human IgG4 anti-PAD4) from neutrophil lysates of patients with RA and healthy donors; 25 mM Tris/HCl pH 7.4, 150 mM NaCl, 1% Triton X-100; washes incl. 500 mM NaCl; on-bead trypsin digestion, LC-MS/MS; proteins of a control precipitate without antibody subtracted; remark: listed apart in the source

Molecule | binding [1] | other results
F-actin-capping protein subunit beta (CAPZB), endogenous in neutrophils (from UniProt P47756 1-272) | binds | –
alpha-actinin-1 (ACTN1), endogenous in neutrophils (from UniProt P12814 1-892) | binds | –
dysferlin (DYSF), endogenous in neutrophils (from UniProt O75923 1-2080) | binds | –
enolase-1 (ENO1), endogenous in neutrophils (from UniProt P06733 1-434) (enzyme) | binds | binding [2]: binds
filamin (FLNA), endogenous in neutrophils (from UniProt P21333 1-2647) | binds | –
myosin light chain 6 (MYL6), endogenous in neutrophils (from UniProt P60660 1-151) | binds | –
myosin-9, endogenous in 293T cells (from UniProt P35579 1-1960) | – | binding [3]: binds
neutrophil cytosolic factor-1 (NCF1), endogenous in neutrophils (from UniProt P14598 1-390) | binds | binding [2]: no binding; binding [4]: binds
tropomyosin (TPM2), endogenous in neutrophils (from UniProt P07951-2) | binds | –
tropomyosin (TPM3), endogenous in neutrophils (from UniProt P06753-2) | binds | –
tubulin (TUBA1B), endogenous in neutrophils (from UniProt P68363 1-451) | binds | –
vinculin (VCL), endogenous in neutrophils (from UniProt P18206-2) | binds | binding [2]: binds
B1 | – | binding [5]: binds
B2 | – | binding [2]: binds; binding [5]: binds
B3 | – | binding [5]: binds
B4 | – | binding [5]: binds

Like-named read-outs stand apart in the source and are kept apart here. These are yes or no findings as the source states them, for the method shown. In cells and extracts the contact can be indirect. A yes stands for co-enrichment or nearness to the bait. Other partners may have been found. For part of these data: No binding means not detected with the bait.
